Assay results taken from PubChem BioAssay AID256 (DTP/NCI, 2004).
The list does not hold the whole screen: it gathers tests that were run many times, whatever their T/C, doses with no T/C, and many T/C values between a quarter and a half above the control. Other doses and runs of a compound stand elsewhere. T/C is the treated group as % of the vehicle group. Some doses have a count of surviving animals in place of a T/C: the source files T/C as zero there, which appears to mark a toxic dose or a test without result, not a measured value. Some survivor counts are full or nearly so, which does not show that the dose was tolerated: survival well below the control is almost never listed, so the zero probably covers shortened survival too. Survivors were counted at the toxicity check, usually on the fifth day, unless a day is given; later deaths do not show. Schedules are NCI's codes, read here as Q, the interval in days (D) or hours (H), X, the number of doses. Some entries hold several experiments; the results are listed from low to high. Some structures stand for samples that the source files as different forms (salt, stereo form or complex); doses refer to the form tested. For survival time, the PubChem record calls one and a half times the control and up active, and a quarter to a half above the control has no call in these data; cut-offs in other NCI protocols can differ. Additions like (4×) say how often a value occurs here.

Test system: CD2F1 mice, L1210 leukemia ip, survival T/C
Assay: NCI In Vivo Anticancer Drug Screen. Data for tumor model L1210 Leukemia (intraperitoneal) in CD2F1 (CDF1) mice
Details: higher T/C = longer survival
In short: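 In this screen, transplantable tumors were grown in mice given either the compound or its vehicle. Results were expressed as the treated measurement relative to the control measurement.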

[1] = T/C endpoint: mean survival time, dose: 400.0 mg/kg/injection, schedule: Q04DX003 (ip), vehicle: saline
[2] = T/C endpoint: mean survival time, dose: 50.0 mg/kg/injection, schedule: Q01DX009 (ip), vehicle: saline
[3] = T/C endpoint: mean survival time, dose: 100.0 mg/kg/injection, schedule: Q04DX002 (ip), vehicle: saline with Tween-80
[4] = T/C endpoint: mean survival time, dose: 200.0 mg/kg/injection, schedule: Q04DX002 (ip), vehicle: saline with Tween-80
[5] = T/C endpoint: mean survival time, dose: 400.0 mg/kg/injection, schedule: Q04DX002 (ip), vehicle: saline with Tween-80
[6] = T/C endpoint: mean survival time, dose: 200.0 mg/kg/injection, schedule: Q01DX009 (ip), vehicle: saline with Tween-80
[7] = T/C endpoint: mean survival time, dose: 400.0 mg/kg/injection, schedule: Q04DX003 (ip), vehicle: saline with Tween-80
[8] = T/C endpoint: mean survival time, dose: 300.0 mg/kg/injection, schedule: Q01DX001 (ip), vehicle: other
[9] = T/C endpoint: mean survival time, dose: 400.0 mg/kg/injection, schedule: Q01DX009 (ip), vehicle: saline with Tween-80
[10] = T/C endpoint: mean survival time, dose: 4.0 mg/kg/injection, schedule: Q01DX009 (ip), vehicle: dextrose
[11] = T/C endpoint: mean survival time, dose: 100.0 mg/kg/injection, schedule: Q04DX003 (ip), vehicle: saline with Tween-80

## CN(C)/C=N/N1C(=O)CSC1=S
T/C endpoint: mean survival time, dose: 200.0 mg/kg/injection, schedule: Q04DX003 (ip), vehicle: saline
  survivor count: 1 of 6
[1]
  survivor count: 0 of 6

## OCCN1CCN(CC/C=C2/c3ccccc3Sc3ccc(Cl)cc32)CC1
[2]
  survivor count: 1 of 6

## Cc1ccc(C)c(NC(=O)Oc2ccc(F)cc2)c1
[3]
  T/C: 86, 91, 97 % of control (2×)
[4]
  T/C: 86, 91, 94, 97 % of control
  survivor count: 3 of 3
[5]
  T/C: 94 and 98 % of control
  survivor count: 3 of 3

## C[N+](C)(C)CC(O)c1ccccc1 (stereo not drawn)
[6]
  survivor count: 3 of 6
[7]
  survivor count: 5 of 6

## CC(=O)Oc1c(C)ncc(C=O)c1C
[8]
  survivor count: 0 of 6

## NCC(Cl)c1ccccc1 (stereo not drawn)
[9]
  survivor count: 1 of 6

## COc1cc(C=Nc2cc(Cl)c(O)c(Cl)c2)ccc1N(CCCl)CCCl
T/C endpoint: mean survival time, dose: 50.0 mg/kg/injection, schedule: Q01DX001 (ip), vehicle: carboxymethylcellulose (CMC)
  survivor count: 1 of 4

## C[C@]12CCCC[C@@H]1CC[C@@H]1[C@@H]2[C@@H](O)C[C@]2(C)[C@@H](O)CC[C@@H]12
[7]
  survivor count: 3 of 6

## O=C(NC/C=C/Br)Nc1cccc2c1CCCC2
T/C endpoint: mean survival time, dose: 400.0 mg/kg/injection, schedule: Q01DX001 (ip), vehicle: saline with Tween-80
  survivor count: 6 of 6

## C[S+](C)CCC1NC(=O)NC1=O (stereo not drawn)
[1]
  survivor count: 2 of 6

## CCCCCCCCCCCCCC(=O)OC1C(CO)OC2C1Oc1nc(=N)ccn12 (stereo not drawn)
T/C endpoint: mean survival time, dose: 12.5 mg/kg/injection, schedule: Q01DX009 (ip), vehicle: other
  T/C: 144 % of control
T/C endpoint: mean survival time, dose: 200.0 mg/kg/injection, schedule: Q01DX009 (ip), vehicle: other
  survivor count: 2 of 6

## Cc1ccc(NC(=O)Nc2ccccc2C(N)=O)cc1[N+](=O)[O-]
[6]
  survivor count: 3 of 3

## c1cnc2ncncc2n1
[9]
  survivor count: 0 of 6

## O=S(=O)(O)c1ccccc1.O=S(=O)(O)c1ccccc1.[NH-]C1CCCCC1[NH-].[Pt+2]
T/C endpoint: mean survival time, dose: 0.25 mg/kg/injection, schedule: Q01DX009 (ip), vehicle: dextrose
  T/C: 125 % of control
T/C endpoint: mean survival time, dose: 0.5 mg/kg/injection, schedule: Q01DX009 (ip), vehicle: dextrose
  T/C: 134 % of control
T/C endpoint: mean survival time, dose: 1.0 mg/kg/injection, schedule: Q01DX009 (ip), vehicle: dextrose
  T/C: 148 % of control
T/C endpoint: mean survival time, dose: 1.0 mg/kg/injection, schedule: Q04DX003 (ip), vehicle: dextrose
  T/C: 125 % of control
T/C endpoint: mean survival time, dose: 2.0 mg/kg/injection, schedule: Q01DX001 (ip), vehicle: dextrose
  T/C: 128 and 135 % of control
T/C endpoint: mean survival time, dose: 2.0 mg/kg/injection, schedule: Q04DX003 (ip), vehicle: dextrose
  T/C: 140 % of control
T/C endpoint: mean survival time, dose: 4.0 mg/kg/injection, schedule: Q01DX001 (ip), vehicle: dextrose
  T/C: 146 % of control
[10]
  T/C: 148 % of control
  survivor count: 6 of 6
T/C endpoint: mean survival time, dose: 4.0 mg/kg/injection, schedule: Q04DX003 (ip), vehicle: other
  T/C: 140 % of control
T/C endpoint: mean survival time, dose: 6.0 mg/kg/injection, schedule: Q01DX001 (ip), vehicle: dextrose
  T/C: 142 % of control
T/C endpoint: mean survival time, dose: 6.0 mg/kg/injection, schedule: Q01DX009 (ip), vehicle: dextrose
  survivor count: 5 of 6
T/C endpoint: mean survival time, dose: 8.0 mg/kg/injection, schedule: Q01DX001 (ip), vehicle: dextrose
  T/C: 126 and 148 % of control
T/C endpoint: mean survival time, dose: 8.0 mg/kg/injection, schedule: Q01DX009 (ip), vehicle: dextrose
  survivor count: 5 of 6
T/C endpoint: mean survival time, dose: 8.0 mg/kg/injection, schedule: Q04DX003 (ip), vehicle: other
  survivor count: 6 of 6
T/C endpoint: mean survival time, dose: 10.0 mg/kg/injection, schedule: Q01DX001 (ip), vehicle: dextrose
  T/C: 140 % of control
T/C endpoint: mean survival time, dose: 12.0 mg/kg/injection, schedule: Q01DX001 (ip), vehicle: dextrose
  T/C: 145 % of control
T/C endpoint: mean survival time, dose: 20.0 mg/kg/injection, schedule: Q01DX001 (ip), vehicle: dextrose
  T/C: 145 % of control

## CCCCCCCC/C=C\CCCCCCCCNC(C)=O
[9]
  survivor count: 2 of 6

## CC1=Nc2cc(C)c(C)cc2N2C1=CC1=C(C(=O)c3cc4ccccc4cc3C1=O)C2C (stereo not drawn)
[11]
  survivor count: 3 of 3
[1]
  survivor count: 1 of 3

## CC(=O)CC(C)=NCCN=C(C)CC(C)=O.[Pd]
T/C endpoint: mean survival time, dose: 25.0 mg/kg/injection, schedule: Q04DX003 (ip), vehicle: distilled water + Tween-80
  survivor count: 2 of 6
T/C endpoint: mean survival time, dose: 50.0 mg/kg/injection, schedule: Q04DX003 (ip), vehicle: distilled water + Tween-80
  survivor count: 0 of 6
T/C endpoint: mean survival time, dose: 100.0 mg/kg/injection, schedule: Q04DX003 (ip), vehicle: distilled water + Tween-80
  survivor count: 0 of 6
T/C endpoint: mean survival time, dose: 200.0 mg/kg/injection, schedule: Q04DX003 (ip), vehicle: distilled water + Tween-80
  survivor count: 0 of 6

## C[N+](C)(Cc1ccccc1)C1c2ccccc2-c2ccc(Cl)cc21 (stereo not drawn)
[3]
  survivor count: 0 of 3
[4]
  survivor count: 0 of 3
[5]
  survivor count: 0 of 3

## Fc1ccc2c(c1)C(Br)c1ccccc1-2 (stereo not drawn)
T/C endpoint: mean survival time, dose: 100.0 mg/kg/injection, schedule: Q01DX009 (ip), vehicle: saline with Tween-80
  survivor count: 2 of 6
[6]
  survivor count: 0 of 6
[9]
  survivor count: 0 of 6

## CCOc1ccccc1OC(=O)Nc1ccc(OC)cc1
[4]
  survivor count: 3 of 3

## CCC1=C[C@H]2CN(CCc3c([nH]c4ccccc34)[C@@](C(=O)OC)(c3cc4c(cc3OC)N(C)[C@H]3[C@@](O)(C(=O)OC)[C@H](OC(C)=O)[C@]5(CC)C=CCN6CC[C@]43[C@@H]65)C2)C1
T/C endpoint: mean survival time, dose: 0.5 mg/kg/injection, schedule: Q01DX009 (ip), vehicle: water
  T/C: 127 % of control
T/C endpoint: mean survival time, dose: 1.0 mg/kg/injection, schedule: Q01DX009 (ip), vehicle: water
  T/C: 143 % of control
T/C endpoint: mean survival time, dose: 8.0 mg/kg/injection, schedule: Q01DX009 (ip), vehicle: water
  survivor count: 0 of 6
T/C endpoint: median survival time, dose: 1.0 mg/kg/injection, schedule: Q01DX009 (ip), vehicle: water
  T/C: 130 % of control
T/C endpoint: median survival time, dose: 2.0 mg/kg/injection, schedule: Q01DX009 (ip), vehicle: water
  T/C: 140 % of control
T/C endpoint: median survival time, dose: 4.0 mg/kg/injection, schedule: Q01DX009 (ip), vehicle: water
  survivor count: 10 of 10
T/C endpoint: median survival time, dose: 8.0 mg/kg/injection, schedule: Q01DX009 (ip), vehicle: water
  survivor count: 2 of 5

## C[N+]1(C)N=C([O-])N(c2cccc3ccccc23)C1=O
[9]
  survivor count: 3 of 6

## O=c1oc2c(ccc3ccccc32)c(O)c1-c1ccccc1
[6]
  survivor count: 0 of 3

## C/C=C/C[P+](c1ccccc1)(c1ccccc1)c1cccc2ccccc12
[3]
  survivor count: 0 of 3
[4]
  survivor count: 0 of 3
[5]
  survivor count: 0 of 3

## N=c1c2ncn(C3CCCC3)c2ncn1Cc1ccc([N+](=O)[O-])cc1
T/C endpoint: mean survival time, dose: 150.0 mg/kg/injection, schedule: Q01DX001 (ip), vehicle: other
  survivor count: 1 of 6
[8]
  survivor count: 0 of 6

## COC(=O)C[As+](c1ccccc1)(c1ccccc1)c1ccccc1
[8]
  survivor count: 0 of 6
T/C endpoint: mean survival time, dose: 300.0 mg/kg/injection, schedule: Q01DX001 (ip), vehicle: saline
  survivor count: 0 of 6

## CC(=O)OCC1OC(n2cnc(N)nc2=O)C(OC(C)=O)C1OC(C)=O (stereo not drawn)
T/C endpoint: mean survival time, dose: 1.56 mg/kg/injection, schedule: Q01DX009 (ip), vehicle: saline
  T/C: 130 % of control
T/C endpoint: mean survival time, dose: 3.12 mg/kg/injection, schedule: Q01DX009 (ip), vehicle: saline
  T/C: 147 % of control
T/C endpoint: mean survival time, dose: 6.25 mg/kg/injection, schedule: Q01DX009 (ip), vehicle: saline
  T/C: 148 % of control
T/C endpoint: mean survival time, dose: 12.5 mg/kg/injection, schedule: Q01DX009 (ip), vehicle: saline
  T/C: 136 % of control
[2]
  survivor count: 3 of 6 and 6 of 6
T/C endpoint: mean survival time, dose: 100.0 mg/kg/injection, schedule: Q01DX009 (ip), vehicle: saline
  survivor count: 1 of 6 and 6 of 6

## O=C(O)c1ccc(C(=O)O)s1.[NH-]C1CCCCC1[NH-].[Pt+2]
T/C endpoint: mean survival time, dose: 10.0 mg/kg/injection, schedule: Q04DX003 (ip), vehicle: dextrose
  T/C: 146 % of control

## CCCCCCCCCCCCCCCCCC[N+](C)(C)C (tested in a mixture with another compound)
T/C endpoint: mean survival time, dose: 50.0 mg/kg/injection, schedule: Q04DX003 (ip), vehicle: saline with Tween-80
  survivor count: 0 of 6
[11]
  survivor count: 0 of 6
T/C endpoint: mean survival time, dose: 200.0 mg/kg/injection, schedule: Q04DX003 (ip), vehicle: saline with Tween-80
  survivor count: 0 of 6
